Source: PMC6737228
Changes are numbered by the printed parent chain. Names and notes keep the numbering of the source. These are yes or no findings as the source states them, for the method shown. In cells and extracts the contact can be indirect. Some binding calls cover weakened binding; strength is not graded here. For some assays here: Tags and fused reporters may be left off the sequences shown. Each block holds one molecule with its values, some of them ahead of it.

The chains behind the UniProt entries cited, without tags or fusion partners.
UniProt P62140: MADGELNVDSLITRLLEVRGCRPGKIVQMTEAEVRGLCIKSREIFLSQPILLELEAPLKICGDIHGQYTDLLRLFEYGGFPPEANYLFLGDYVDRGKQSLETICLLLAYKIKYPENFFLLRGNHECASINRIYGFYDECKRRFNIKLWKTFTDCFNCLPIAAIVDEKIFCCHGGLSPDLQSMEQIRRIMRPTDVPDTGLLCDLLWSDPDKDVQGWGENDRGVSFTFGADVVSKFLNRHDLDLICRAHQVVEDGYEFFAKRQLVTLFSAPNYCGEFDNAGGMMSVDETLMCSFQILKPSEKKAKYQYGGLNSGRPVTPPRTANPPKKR
UniProt P35579: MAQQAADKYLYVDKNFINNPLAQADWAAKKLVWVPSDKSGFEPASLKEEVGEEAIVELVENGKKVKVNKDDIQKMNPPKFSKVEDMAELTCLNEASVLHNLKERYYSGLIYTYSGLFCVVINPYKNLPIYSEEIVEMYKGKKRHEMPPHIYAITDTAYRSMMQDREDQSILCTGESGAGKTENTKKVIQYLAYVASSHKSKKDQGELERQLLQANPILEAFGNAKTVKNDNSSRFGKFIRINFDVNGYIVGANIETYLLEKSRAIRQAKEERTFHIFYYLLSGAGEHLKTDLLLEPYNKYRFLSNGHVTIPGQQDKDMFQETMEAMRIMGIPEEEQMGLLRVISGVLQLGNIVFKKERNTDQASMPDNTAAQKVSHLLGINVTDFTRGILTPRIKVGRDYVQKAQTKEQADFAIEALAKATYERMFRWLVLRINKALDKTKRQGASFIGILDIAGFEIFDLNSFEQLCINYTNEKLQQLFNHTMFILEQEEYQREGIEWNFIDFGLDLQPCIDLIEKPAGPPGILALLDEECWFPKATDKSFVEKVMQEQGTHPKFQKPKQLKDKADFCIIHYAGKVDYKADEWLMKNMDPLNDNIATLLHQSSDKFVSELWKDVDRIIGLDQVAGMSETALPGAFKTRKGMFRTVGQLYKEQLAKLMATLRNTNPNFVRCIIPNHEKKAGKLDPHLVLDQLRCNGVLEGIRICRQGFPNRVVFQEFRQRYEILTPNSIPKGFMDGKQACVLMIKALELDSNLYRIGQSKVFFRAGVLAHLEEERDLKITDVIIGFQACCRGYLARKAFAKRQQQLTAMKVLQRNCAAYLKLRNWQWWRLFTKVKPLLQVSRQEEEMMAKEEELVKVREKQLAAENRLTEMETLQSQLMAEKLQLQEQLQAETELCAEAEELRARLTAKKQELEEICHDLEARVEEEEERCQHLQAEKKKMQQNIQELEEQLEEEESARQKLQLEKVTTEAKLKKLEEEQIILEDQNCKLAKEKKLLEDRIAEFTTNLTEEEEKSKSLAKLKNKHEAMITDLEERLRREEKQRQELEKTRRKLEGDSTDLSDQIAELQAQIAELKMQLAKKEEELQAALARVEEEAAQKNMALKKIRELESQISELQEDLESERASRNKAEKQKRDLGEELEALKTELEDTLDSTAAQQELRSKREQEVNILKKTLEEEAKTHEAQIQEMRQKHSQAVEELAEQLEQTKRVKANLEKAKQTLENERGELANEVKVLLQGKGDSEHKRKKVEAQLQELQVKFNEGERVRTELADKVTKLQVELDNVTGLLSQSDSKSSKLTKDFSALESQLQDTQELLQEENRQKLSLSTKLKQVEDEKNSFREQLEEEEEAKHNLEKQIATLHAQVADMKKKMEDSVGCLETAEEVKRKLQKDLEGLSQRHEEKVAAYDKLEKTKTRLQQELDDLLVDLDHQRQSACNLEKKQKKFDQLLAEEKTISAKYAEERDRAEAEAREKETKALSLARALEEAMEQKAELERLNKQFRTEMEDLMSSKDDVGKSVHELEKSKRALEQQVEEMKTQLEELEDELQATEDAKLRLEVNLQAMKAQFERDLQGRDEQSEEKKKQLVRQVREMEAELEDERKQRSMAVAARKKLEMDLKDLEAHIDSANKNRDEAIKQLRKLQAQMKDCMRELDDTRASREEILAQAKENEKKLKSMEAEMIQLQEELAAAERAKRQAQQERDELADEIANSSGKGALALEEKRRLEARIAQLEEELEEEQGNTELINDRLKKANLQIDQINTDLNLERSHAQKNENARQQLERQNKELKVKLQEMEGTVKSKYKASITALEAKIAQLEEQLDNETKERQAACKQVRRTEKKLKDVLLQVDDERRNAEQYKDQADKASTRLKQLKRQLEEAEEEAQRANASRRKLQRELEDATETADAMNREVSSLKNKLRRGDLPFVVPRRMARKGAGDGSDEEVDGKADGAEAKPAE

Assays:
[1] = biological target: T1, Transforming growth factor-β membrane associated protein (TIMAP), endogenous (human (endogenous in primary human glomerular ECs)) (UniProt Q96T49); assay: co-IP; endogenous TIMAP immunoprecipitated from glomerular EC lysates with chicken anti-TIMAP IgY (control: nonimmune IgY), goat anti-chicken IgG beads, 4 °C; lysis buffer 50 mM Tris-HCl pH 7.5, 150 mM NaCl, 1.0% Nonidet P-40, 0.5% sodium deoxycholate; Western blot
T1 sequence: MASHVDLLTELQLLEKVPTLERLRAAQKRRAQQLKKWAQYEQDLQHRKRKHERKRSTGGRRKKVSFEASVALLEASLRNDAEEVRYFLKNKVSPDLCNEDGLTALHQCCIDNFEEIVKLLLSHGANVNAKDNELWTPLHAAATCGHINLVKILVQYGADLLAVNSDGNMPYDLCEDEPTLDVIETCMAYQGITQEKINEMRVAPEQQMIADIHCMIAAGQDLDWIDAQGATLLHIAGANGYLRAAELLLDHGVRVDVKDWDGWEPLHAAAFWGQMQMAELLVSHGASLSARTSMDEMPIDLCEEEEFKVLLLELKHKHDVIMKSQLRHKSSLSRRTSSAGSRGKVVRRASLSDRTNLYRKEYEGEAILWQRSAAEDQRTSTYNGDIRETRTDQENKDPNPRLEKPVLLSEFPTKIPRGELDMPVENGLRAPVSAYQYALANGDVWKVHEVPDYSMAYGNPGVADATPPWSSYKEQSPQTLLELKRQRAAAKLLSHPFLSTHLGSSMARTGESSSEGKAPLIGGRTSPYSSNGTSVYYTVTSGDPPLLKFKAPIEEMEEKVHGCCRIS

[2] = biological target: catalytic protein phosphatase 1 subunit PP1cβ, endogenous (human (endogenous in primary human glomerular ECs)) (UniProt P62140); assay: pull-down
[3] = biological target: catalytic protein phosphatase 1 subunit PP1cβ, endogenous (human (endogenous in primary human glomerular ECs)) (UniProt P62140); assay: co-IP; PP1cβ immunoprecipitated with a PP1cβ antibody from lysates of glomerular ECs overexpressing GFP-TIMAP^WT (adenoviral); Western blot

- binding [1]: binds
Molecule: catalytic protein phosphatase 1 subunit PP1cβ, endogenous (from UniProt P62140 1-327) (enzyme)

- binding [1]: binds
Molecule: Myosin IIA heavy chain, endogenous (from UniProt P35579 1-1960)

- binding [2]: binds
B1: GFP-TIMAP^S333E/S337E (protein, UniProt Q96T49 1-567)
chain: T1 sequence with S333E, S337E

- binding [3]: binds
B2: GFP-TIMAP^WT (protein, UniProt Q96T49 1-567)
chain: T1 sequence

- binding [2]: binds
B3: GFP-TIMAP^S333A/S337A (protein, UniProt Q96T49 1-567)
chain: T1 sequence with S333A, S337A
